The results in this text go back to publication PMC9644546.

By UniProt entry, the sequences of proteins in these tests, tags left out. Residues count along the entry.
UniProt Q15465, residues 24-462: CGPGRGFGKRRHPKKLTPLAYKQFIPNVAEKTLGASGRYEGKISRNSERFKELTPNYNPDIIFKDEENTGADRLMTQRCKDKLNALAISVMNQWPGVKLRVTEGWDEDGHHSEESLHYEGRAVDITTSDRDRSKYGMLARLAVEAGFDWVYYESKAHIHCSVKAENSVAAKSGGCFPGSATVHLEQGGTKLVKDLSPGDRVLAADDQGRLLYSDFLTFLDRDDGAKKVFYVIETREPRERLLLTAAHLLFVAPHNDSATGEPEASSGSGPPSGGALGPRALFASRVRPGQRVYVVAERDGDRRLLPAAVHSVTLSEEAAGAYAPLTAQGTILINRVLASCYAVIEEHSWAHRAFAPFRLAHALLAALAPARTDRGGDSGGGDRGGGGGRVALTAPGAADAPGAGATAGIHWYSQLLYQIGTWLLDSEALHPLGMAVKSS
UniProt Q8IWY4, residues 24-988: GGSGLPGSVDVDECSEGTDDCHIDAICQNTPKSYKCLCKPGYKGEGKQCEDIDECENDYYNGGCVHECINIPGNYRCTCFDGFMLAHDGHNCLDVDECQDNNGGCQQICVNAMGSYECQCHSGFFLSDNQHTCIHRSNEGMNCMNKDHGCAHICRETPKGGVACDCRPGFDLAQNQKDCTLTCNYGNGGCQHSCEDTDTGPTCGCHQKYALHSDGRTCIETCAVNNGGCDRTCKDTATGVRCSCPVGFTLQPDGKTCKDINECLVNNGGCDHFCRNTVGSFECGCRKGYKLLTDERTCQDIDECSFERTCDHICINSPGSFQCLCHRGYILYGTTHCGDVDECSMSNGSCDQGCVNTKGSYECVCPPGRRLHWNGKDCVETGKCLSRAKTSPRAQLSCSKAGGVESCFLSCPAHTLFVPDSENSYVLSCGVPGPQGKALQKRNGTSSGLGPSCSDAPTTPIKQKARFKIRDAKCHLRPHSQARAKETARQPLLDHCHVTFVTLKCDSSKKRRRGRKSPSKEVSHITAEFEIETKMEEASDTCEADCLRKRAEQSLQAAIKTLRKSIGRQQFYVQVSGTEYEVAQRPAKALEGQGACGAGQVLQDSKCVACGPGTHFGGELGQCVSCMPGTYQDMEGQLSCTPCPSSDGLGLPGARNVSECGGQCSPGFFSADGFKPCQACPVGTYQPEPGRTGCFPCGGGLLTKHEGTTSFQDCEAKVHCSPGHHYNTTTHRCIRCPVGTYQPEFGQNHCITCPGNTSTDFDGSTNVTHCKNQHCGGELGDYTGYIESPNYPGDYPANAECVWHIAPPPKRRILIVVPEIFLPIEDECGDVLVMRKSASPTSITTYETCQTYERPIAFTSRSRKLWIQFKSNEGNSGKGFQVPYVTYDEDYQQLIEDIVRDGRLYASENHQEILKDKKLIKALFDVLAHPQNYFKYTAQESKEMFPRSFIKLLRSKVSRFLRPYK

These are yes or no findings as the source states them, for the method shown. Binding seen in cells or lysates may run through a third protein. Some results given as binding are weak or reduced against the parent protein; the word gives no strength.

This assay addresses Sonic Hedgehog (Shh) protein (human (endogenous in PLC/PRF/5 and Huh7)) (UniProt Q15465). Briefly: co-IP; magnetic beads with anti-Shh (Santa Cruz, sc-373779) or IgG control, incubated with lysates of PLC and Huh7 cells overnight at 4°C; washed with PBST; SDS-PAGE/immunoblot. A general note: In western blotting, separated proteins are transferred to a membrane and probed.

For SCUBE1 (from UniProt Q8IWY4 24-988), the binding result is “binds”.
